Laboratory results published in patent US20210208163A1.
Results are given in words; binding and its absence hold for the method and conditions named. Some results given as binding are weak or reduced against the parent protein; the word gives no strength.

Amino acid sequences for entries named in this document (tags omitted). A change or cut given only in a name is not applied to a line headed by its entry.
UniProt P43406: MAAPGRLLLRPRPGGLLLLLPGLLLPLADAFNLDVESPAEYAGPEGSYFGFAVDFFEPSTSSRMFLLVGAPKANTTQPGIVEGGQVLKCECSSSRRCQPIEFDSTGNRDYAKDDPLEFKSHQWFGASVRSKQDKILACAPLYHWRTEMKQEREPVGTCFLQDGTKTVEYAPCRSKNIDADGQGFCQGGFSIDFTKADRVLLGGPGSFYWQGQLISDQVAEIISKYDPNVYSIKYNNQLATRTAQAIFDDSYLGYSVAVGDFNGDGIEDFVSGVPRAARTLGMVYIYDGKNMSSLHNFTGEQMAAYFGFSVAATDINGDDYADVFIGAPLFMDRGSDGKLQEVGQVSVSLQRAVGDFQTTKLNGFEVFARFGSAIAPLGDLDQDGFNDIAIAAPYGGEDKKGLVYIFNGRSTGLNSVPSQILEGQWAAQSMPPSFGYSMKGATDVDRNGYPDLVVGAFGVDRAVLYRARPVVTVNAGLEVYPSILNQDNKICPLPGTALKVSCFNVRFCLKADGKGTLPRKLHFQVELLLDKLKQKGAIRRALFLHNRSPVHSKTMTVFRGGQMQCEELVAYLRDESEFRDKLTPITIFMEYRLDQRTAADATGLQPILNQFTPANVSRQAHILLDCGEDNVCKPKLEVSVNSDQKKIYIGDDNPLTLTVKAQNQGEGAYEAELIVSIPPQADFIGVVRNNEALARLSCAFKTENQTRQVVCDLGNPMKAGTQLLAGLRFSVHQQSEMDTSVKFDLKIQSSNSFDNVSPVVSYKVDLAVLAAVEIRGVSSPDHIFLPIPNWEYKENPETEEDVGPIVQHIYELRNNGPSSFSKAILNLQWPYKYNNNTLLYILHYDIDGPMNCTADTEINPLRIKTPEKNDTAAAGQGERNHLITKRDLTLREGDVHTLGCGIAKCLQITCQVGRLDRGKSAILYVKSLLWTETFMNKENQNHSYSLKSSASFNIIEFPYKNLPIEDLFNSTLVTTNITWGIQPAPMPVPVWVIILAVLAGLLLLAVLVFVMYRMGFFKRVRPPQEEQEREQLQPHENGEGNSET
UniProt O54890: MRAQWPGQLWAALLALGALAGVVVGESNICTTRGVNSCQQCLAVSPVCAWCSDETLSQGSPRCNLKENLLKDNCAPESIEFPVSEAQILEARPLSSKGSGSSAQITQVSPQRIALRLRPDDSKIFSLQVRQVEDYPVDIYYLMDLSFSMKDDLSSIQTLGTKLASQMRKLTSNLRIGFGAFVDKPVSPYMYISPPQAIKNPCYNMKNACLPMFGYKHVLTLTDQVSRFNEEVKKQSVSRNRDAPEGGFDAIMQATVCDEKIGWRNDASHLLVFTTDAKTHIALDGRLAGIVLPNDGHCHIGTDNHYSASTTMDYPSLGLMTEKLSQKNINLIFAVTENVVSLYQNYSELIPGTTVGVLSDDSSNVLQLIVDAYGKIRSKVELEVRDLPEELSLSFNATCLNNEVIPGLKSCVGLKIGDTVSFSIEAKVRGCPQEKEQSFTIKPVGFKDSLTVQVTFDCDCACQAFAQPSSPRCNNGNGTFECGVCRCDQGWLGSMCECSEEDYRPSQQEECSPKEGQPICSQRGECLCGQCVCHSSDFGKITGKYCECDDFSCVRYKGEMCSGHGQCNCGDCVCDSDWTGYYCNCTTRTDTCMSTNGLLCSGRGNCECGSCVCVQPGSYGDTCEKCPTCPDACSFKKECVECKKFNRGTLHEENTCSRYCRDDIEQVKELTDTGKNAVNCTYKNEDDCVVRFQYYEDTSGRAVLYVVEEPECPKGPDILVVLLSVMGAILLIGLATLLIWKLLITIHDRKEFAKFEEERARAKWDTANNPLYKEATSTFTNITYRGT
UniProt Q9JHJ8: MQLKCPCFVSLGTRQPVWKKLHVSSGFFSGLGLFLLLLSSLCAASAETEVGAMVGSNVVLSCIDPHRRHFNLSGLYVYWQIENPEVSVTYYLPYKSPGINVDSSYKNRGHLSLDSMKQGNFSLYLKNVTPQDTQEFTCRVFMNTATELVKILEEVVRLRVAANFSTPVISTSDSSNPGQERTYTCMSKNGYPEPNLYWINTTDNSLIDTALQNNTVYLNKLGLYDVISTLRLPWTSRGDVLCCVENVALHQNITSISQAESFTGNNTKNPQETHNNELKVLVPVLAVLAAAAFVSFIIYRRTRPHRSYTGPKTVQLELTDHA

What was measured:
[1] = molecular target: T1, recombinant mouse integrin αvβ3 (R&D Systems, 7889-AV-050) (mouse) (UniProt P43406+O54890); assay: SPR (Biacore), WT mICOSL immobilised on a CM5 chip, αvβ3 as analyte, 0.2 mM Ca2+ / 0.1 mM Mg2+
[2] = molecular target: T1, recombinant mouse integrin αvβ3 (R&D Systems, 7889-AV-050) (mouse); assay: SPR, Mn2+
[3] = molecular target: T1, recombinant mouse integrin αvβ3 (R&D Systems, 7889-AV-050) (mouse); assay: SPR inhibition assay, mICOSL immobilised, active αvβ3 alone injected (150 nM according to the legend); the species of the αvβ3 is not named on the sheet or in the legend
[4] = molecular target: T1, recombinant mouse integrin αvβ3 (R&D Systems, 7889-AV-050) (mouse); assay: SPR (Biacore), mICOSL immobilised on a CM5 chip, αvβ3 as analyte, active αvβ3 with Mn2+; the species of the αvβ3 is not named on the sheet or in the legend

binding [1]: binds
binding [2]: binds
binding [3]: binds
binding [4]: binds
Substance: mouse ICOSL, wild type (RGD), full-length, N-terminal His-tag (from UniProt Q9JHJ8 47-277) (ligand)
